Reference: paper PMC7819943, “Rice protein-binding microarrays: a tool to detect cis-acting elements near promoter regions in rice”
This is one part of the list.

Protein sequences, listed by entry. Tags and fused reporters are not part of them.
UniProt Q0JBA9, entry or part of it: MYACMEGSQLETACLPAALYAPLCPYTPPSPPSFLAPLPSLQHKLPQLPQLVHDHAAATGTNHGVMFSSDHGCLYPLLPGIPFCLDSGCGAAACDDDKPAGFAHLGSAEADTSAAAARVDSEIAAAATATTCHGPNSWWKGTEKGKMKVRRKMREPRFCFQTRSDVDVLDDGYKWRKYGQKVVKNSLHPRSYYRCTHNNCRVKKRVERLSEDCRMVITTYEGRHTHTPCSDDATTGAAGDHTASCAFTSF

These sequences were tested against OsWRKY34 (Oryza sativa, UniProt Q0JBA9 1-250) (assay: protein-binding microarray (RPBM); PBS, 2% BSA, 51.3 ng/ul salmon testes DNA, 50 uM zinc acetate, 200 nM TF, 25 C, 1 h; high values mean tight binding). Conditions: protein: recombinant; tags: N-terminal polyhistidine and DsRed monomer fusion (pET32a); label: CyDye5-dUTP incorporated in the synthesized complementary strand; 3' TTTTT single-stranded linker to array surface; dsDNA, one strand shown.
Method in brief: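 The binding signal is fluorescence intensity per feature, in arbitrary units, read on an Axon 4000B scanner. Polyhistidine- and DsRed-tagged transcription factors (N-terminal fusions) from E. coli BL21-CodonPlus were purified on Ni–NTA and applied at 200 nM for 1 h at 25 °C to a double-stranded, BSA-blocked custom Agilent array in buffer with 50 µM zinc acetate.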
With “TTGATTTCTTGTATGCTAGCCATTTTCATATTTTGTATTACGGAGTCACCTAGTGCAG” the binding signal was 9710 fluorescence intensity (a.u.).
For “GCCGCCTCCGCCGCCGCCCGATAGGCCTCCGGCGCCGCCCCGGAGTCACCTAGTGCAG”, the binding signal was 9360 fluorescence intensity (a.u.).
In the case of “TTGGGTTGAGATGGGTAGGAGTGGTGGTGGCGGTGGTGGTCGGAGTCACCTAGTGCAG”, the binding signal is reported as 8160 fluorescence intensity (a.u.).
For “AAAAGGCATTTTCCCCGATGTGGGTTTTATTTTTCCAGTCCGGAGTCACCTAGTGCAG”, the binding signal was 8910 fluorescence intensity (a.u.).
“GAGCTGGTGGAGGGGTCTTAGCTCGTGAGAGGGATTTGATCGGAGTCACCTAGTGCAG” was tested, and the binding signal was 8330 fluorescence intensity (a.u.).
“GACGAATACCGGTCAACACCGCCATATCAGCGCCACGTCACGGAGTCACCTAGTGCAG” was tested, and the binding signal was 8220 fluorescence intensity (a.u.).
With “ATGCTATACCTACGGTTTCGTTTTTTCTACTTTCTAGCATCGGAGTCACCTAGTGCAG” the binding signal was 10900 fluorescence intensity (a.u.).
In the case of “CCCCATTTCGCCTTCTGCTCCGGTGAGCTCCGATCTGACTCGGAGTCACCTAGTGCAG”, the binding signal is reported as 9310 fluorescence intensity (a.u.).
“AGATGCTACTTTGATCAACCTGCGCCGTGCTGTAGTCCAACGGAGTCACCTAGTGCAG” was tested, and the binding signal was 8170 fluorescence intensity (a.u.).
For “TGACTATACACCTTCAATTGGTTCATCCTTCACTATCTCTCGGAGTCACCTAGTGCAG”, the binding signal was 9440 fluorescence intensity (a.u.).
“GCTTTTCCGCCCATAGATTCCCTTTTCCCGGCCCAATTCCCGGAGTCACCTAGTGCAG” was tested, and the binding signal was 8180 fluorescence intensity (a.u.).
With “ACGAAGCCGGCGCCGTCGTTCTCTTTCTCACGTCGCCGTCCGGAGTCACCTAGTGCAG” the binding signal was 9200 fluorescence intensity (a.u.).
With “AACACCATCCATGCTGTCGAGTATCAAAGGCTTCTTGTTCCGGAGTCACCTAGTGCAG” the binding signal was 9960 fluorescence intensity (a.u.).
For “TGGTTGGTTTTTGCGAAATTTTCTGTGATTTCGAGATAGGCGGAGTCACCTAGTGCAG”, the binding signal was 15600 fluorescence intensity (a.u.).
With “GAAAGCAGCGGCGCGGGGTTTTCGAGTGGGTTTGGGGATACGGAGTCACCTAGTGCAG” the binding signal was 10500 fluorescence intensity (a.u.).
In the case of “CTTCTTCTCACGTCTCTCTCTCTGAATCCAGATTTTTTTTCGGAGTCACCTAGTGCAG”, the binding signal is reported as 8590 fluorescence intensity (a.u.).
In the case of “GCTCGTTGCCATGGTCTTCCTTGTCAATCCAACCTGCATCCGGAGTCACCTAGTGCAG”, the binding signal is reported as 8890 fluorescence intensity (a.u.).
For “CGCTGTTGATTCATATGGCTTCTTTTGGTCTTCTGCTCTTCGGAGTCACCTAGTGCAG”, the binding signal was 8580 fluorescence intensity (a.u.).
With “TAAGTATTGTTTTCTTTTCTCTTTATTCTCTTGCGTCTTCCGGAGTCACCTAGTGCAG” the binding signal was 9520 fluorescence intensity (a.u.).
“ATATTTTTTCTGATGTTTTGGGGCTTTTCTAGTCGTTATACGGAGTCACCTAGTGCAG” was tested, and the binding signal was 12300 fluorescence intensity (a.u.).
“GTTGACTCGCACTTTTTGTAATTATGTGTTACATGGTTTCCGGAGTCACCTAGTGCAG” was tested, and the binding signal was 8810 fluorescence intensity (a.u.).
In the case of “TAACTTCTTGCTGAACCACGTTTGATCCTGTTATCAATTTCGGAGTCACCTAGTGCAG”, the binding signal is reported as 8970 fluorescence intensity (a.u.).
With “AAATAATCTGTCTTCTATTCTTCGTGTTCCTTTTTTGAAACGGAGTCACCTAGTGCAG” the binding signal was 8560 fluorescence intensity (a.u.).
“TACTAGTAGCTTCTCTCTCTCTCTCTTCTTCTTCCTCGCTCGGAGTCACCTAGTGCAG” was tested, and the binding signal was 9760 fluorescence intensity (a.u.).
“TCCGTCGTCTTCCTTTACTGGTTCTATGTCTTCTCAGTAACGGAGTCACCTAGTGCAG” was tested, and the binding signal was 10800 fluorescence intensity (a.u.).
“CTAACCAGGTGATAACTTGTCCTTGCAAATCACTATCATCCGGAGTCACCTAGTGCAG” was tested, and the binding signal was 8370 fluorescence intensity (a.u.).
In the case of “CGTTATCTCACGACGCCGTCCCGCCACGTCTCGCCGTTTCCGGAGTCACCTAGTGCAG”, the binding signal is reported as 8590 fluorescence intensity (a.u.).
In the case of “CGATATTCCCGGTTTTGTGGTTGGAGGTTATGAATGATACCGGAGTCACCTAGTGCAG”, the binding signal is reported as 9980 fluorescence intensity (a.u.).
For “TGTATTTGACTGTTACTGCTTTTGGATTTTGTTTCATTTTCGGAGTCACCTAGTGCAG”, the binding signal was 17500 fluorescence intensity (a.u.).
For “GCTATAAATAGGCAGGTTTGGATAGGTATGGGGCTAACTACGGAGTCACCTAGTGCAG”, the binding signal was 9660 fluorescence intensity (a.u.).
For “TTTGCCAGTGTCCCGATTCAGATATTAGGTGTCAAAATCTCGGAGTCACCTAGTGCAG”, the binding signal was 8630 fluorescence intensity (a.u.).
In the case of “CCCGCATTTAAAACTTTAATCTCGATACTTAATTGTCTGCCGGAGTCACCTAGTGCAG”, the binding signal is reported as 8120 fluorescence intensity (a.u.).
For “CCGGGATACTATAAAGCTTTTCTTGCTACTAAGATCCTACCGGAGTCACCTAGTGCAG”, the binding signal was 8860 fluorescence intensity (a.u.).
In the case of “GGTTGTGGTTAATTTTTAAAATATAACATTTCATTTTTTTCGGAGTCACCTAGTGCAG”, the binding signal is reported as 8020 fluorescence intensity (a.u.).
For “CCTGCCTATATTTTTTTTCTTGTCTATAGGTATACTCAGGCGGAGTCACCTAGTGCAG”, the binding signal was 9640 fluorescence intensity (a.u.).
“GCATGAGTAGGGGATGGCATTAAAACAGGTTGGTCAGGTGCGGAGTCACCTAGTGCAG” was tested, and the binding signal was 8920 fluorescence intensity (a.u.).
For “GGGCTCAAAATAGACTTATTCCATTCAGAGCTGTTTGGGGCGGAGTCACCTAGTGCAG”, the binding signal was 8060 fluorescence intensity (a.u.).
For “CATTTTTGGTCTTTTCTGTTACCTTCTGCTAATATATTTCCGGAGTCACCTAGTGCAG”, the binding signal was 14400 fluorescence intensity (a.u.).
In the case of “TTGTTATTTTTGTTGCAACTTATAGAAGTTCAATTGGTCTCGGAGTCACCTAGTGCAG”, the binding signal is reported as 8030 fluorescence intensity (a.u.).
In the case of “TCCACTCTCTGACTTTAATATTTACCACACGTTTGCAACTCGGAGTCACCTAGTGCAG”, the binding signal is reported as 8090 fluorescence intensity (a.u.).
“AAACGCGCCGGCCTCGTCGTCCGACCGTCACTTGCATTGTCGGAGTCACCTAGTGCAG” was tested, and the binding signal was 8530 fluorescence intensity (a.u.).
In the case of “TCTAGATTTGATCATTTTGACCTCTTGCTCCGTTAGATCTCGGAGTCACCTAGTGCAG”, the binding signal is reported as 10300 fluorescence intensity (a.u.).
In the case of “CCATTTGGTGCGCCGTCGCCGTTGTCCTGCCTTCGCCGCCCGGAGTCACCTAGTGCAG”, the binding signal is reported as 13800 fluorescence intensity (a.u.).
With “ATTCTTCATTTATCAGGGGACAGTATAGCAACACTTCTCTCGGAGTCACCTAGTGCAG” the binding signal was 8740 fluorescence intensity (a.u.).
For “CGTCTCGTTTTATGTTCACTTATTTTTATTATCATTTTTACGGAGTCACCTAGTGCAG”, the binding signal was 10900 fluorescence intensity (a.u.).
With “AGTATAATAAGTGTTTCTTTTCACAACCTTTCCTTGTGTACGGAGTCACCTAGTGCAG” the binding signal was 8950 fluorescence intensity (a.u.).
For “GCCAAACAACACATTATGTACATTTTTTTCCTATATAAAACGGAGTCACCTAGTGCAG”, the binding signal was 8120 fluorescence intensity (a.u.).
For “CTCTCTACTTTCTTTCTTTGACTTGTGGCACACACCTCTACGGAGTCACCTAGTGCAG”, the binding signal was 14200 fluorescence intensity (a.u.).
For “TATAATTATGTCATCACATCAGCACCATATATATGGAATCCGGAGTCACCTAGTGCAG”, the binding signal was 8590 fluorescence intensity (a.u.).
“CTTCGTCTCCGCTCCTCTCCGCCGCCTCGTCTCGTCGCCTCGGAGTCACCTAGTGCAG” was tested, and the binding signal was 8430 fluorescence intensity (a.u.).
“ACAGCCTCTACATTTTACTTGTTTCATAATCCTGTGTTCTCGGAGTCACCTAGTGCAG” was tested, and the binding signal was 13500 fluorescence intensity (a.u.).
With “ATCTGTTCGTGGGTTGCTTGCTCAGTCGACCAATCGTTGACGGAGTCACCTAGTGCAG” the binding signal was 19200 fluorescence intensity (a.u.).
In the case of “CTCCATCCGCTCCGTCCGCCGAGACGAGATCCCTTTCCTCCGGAGTCACCTAGTGCAG”, the binding signal is reported as 9010 fluorescence intensity (a.u.).
For “CTCTCTGGGTTGACTTACCGTTTTAGACAAGGGCACGGTCCGGAGTCACCTAGTGCAG”, the binding signal was 8990 fluorescence intensity (a.u.).
